Values from PubChem BioAssay AID1159584 (Peter MacCallum Cancer Centre, 2016).
Aim: 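Genes that CDH1-null MCF10A cells selectively depend on to survive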 (primary screen). Cells: human MCF10A breast epithelial cells, parental and CDH1-null. Knock-down reagent: siRNA against human genes. Detection: 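Cell viability by CellTiter-Glo ATP luminescence, each line scaled to the mean of mock wells across plates, then CDH1-null over parental ratio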. Scale: CDH1-null / parental viability ratio: higher = CDH1-null cells survive relatively better than parental; CDH1-null viability vs mock: higher = more viable CDH1-null cells. Units: CDH1-null viability vs mock in fraction of mock.
This is an unselected part of about 18,000 reagents tested. Further read-outs or replicates are left out here. Not stated in the record: the amount of reagent, the time to read-out.

Knock-down of SLC25A12 [SID135621377] gave: CDH1-null / parental viability ratio 1.11; CDH1-null viability vs mock 0.94.
After knock-down of CREG2 (cellular repressor of E1A stimulated genes 2) [SID152148670], the screen gave CDH1-null / parental viability ratio 0.97; CDH1-null viability vs mock 1.11.
Depletion of DPPA5 (developmental pluripotency associated 5) [SID152154995] gave: CDH1-null / parental viability ratio 0.72; CDH1-null viability vs mock 0.66.
Against ARSB (arylsulfatase B) [SID152149476], the entry reads CDH1-null / parental viability ratio 1.02; CDH1-null viability vs mock 0.63.
Knock-down of DHRS2 (dehydrogenase/reductase 2) [SID152151184] gave: CDH1-null / parental viability ratio 1.02; CDH1-null viability vs mock 0.82.
Knock-down of DLGAP1-AS1 (DLGAP1 antisense RNA 1) [SID135625524] came out at: CDH1-null / parental viability ratio 0.9; CDH1-null viability vs mock 0.76.
With knock-down of THOC1 (THO complex subunit 1) [SID152149496], the screen gave CDH1-null / parental viability ratio 1.35; CDH1-null viability vs mock 0.97.
After knock-down of OTUD4 (OTU deubiquitinase 4) [SID134314619], the record shows CDH1-null / parental viability ratio 1.05; CDH1-null viability vs mock 0.96.
After knock-down of PHYHIP (phytanoyl-CoA 2-hydroxylase interacting protein) [SID152155877], the screen gave CDH1-null / parental viability ratio 0.68; CDH1-null viability vs mock 0.53.
PNLDC1 (PARN like ribonuclease domain containing exonuclease 1) [SID134322396] scored CDH1-null / parental viability ratio 1.06; CDH1-null viability vs mock 0.82.
Silencing of TIMM23B (translocase of inner mitochondrial membrane 23 homolog B) [SID134323886] resulted in: CDH1-null / parental viability ratio 1.54; CDH1-null viability vs mock 0.4.
CBR4 (carbonyl reductase 4) [SID152156180] scored CDH1-null / parental viability ratio 0.89; CDH1-null viability vs mock 0.66.

As entered above:
ARSB (arylsulfatase B) [SID152149476], CDH1-null viability vs mock → 0.63
For “CDH1-null viability vs mock”, DLGAP1-AS1 (DLGAP1 antisense RNA 1) [SID135625524] is entered as 0.76
DPPA5 (developmental pluripotency associated 5) [SID152154995], CDH1-null / parental viability ratio: 0.72
Under “CDH1-null / parental viability ratio”, CREG2 (cellular repressor of E1A stimulated genes 2) [SID152148670] has 0.97

Continued.
EXOC3 (exocyst complex component 3) [SID152150335] showed CDH1-null / parental viability ratio 1.02; CDH1-null viability vs mock 0.61.
With knock-down of MCRIP1 (MAPK regulated corepressor interacting protein 1) [SID135624947] the results were CDH1-null / parental viability ratio 1.23; CDH1-null viability vs mock 0.96.
For BCAR3 (BCAR3 adaptor protein, NSP family member) [SID152152326], the values are CDH1-null / parental viability ratio 0.95; CDH1-null viability vs mock 0.39.
Against TMEM14A (transmembrane protein 14A) [SID152150141] the deposit lists CDH1-null / parental viability ratio 1.05; CDH1-null viability vs mock 0.68.
Knock-down of SETMAR (SET and mariner transposase domain methyltransferase) [SID135623895] came out at: CDH1-null / parental viability ratio 1.02; CDH1-null viability vs mock 0.96.
Against PAQR6 (progestin and adipoQ receptor family member 6) [SID152152296], the values are CDH1-null / parental viability ratio 1.35; CDH1-null viability vs mock 0.62.
Silencing of SMC2 (structural maintenance of chromosomes 2) [SID152153976] gave: CDH1-null / parental viability ratio 1.22; CDH1-null viability vs mock 0.77.
Depletion of PNRC2 (proline rich nuclear receptor coactivator 2) [SID152149387] gave: CDH1-null / parental viability ratio 1.13; CDH1-null viability vs mock 1.04.
Against KCNJ2 (potassium inwardly rectifying channel subfamily J member 2) [SID134311665], the values are CDH1-null / parental viability ratio 1.22; CDH1-null viability vs mock 1.
With knock-down of ZNF284 (zinc finger protein 284) [SID135625261], the screen gave CDH1-null / parental viability ratio 0.93; CDH1-null viability vs mock 0.63.
Knock-down of TMED5 (transmembrane p24 trafficking protein 5) [SID152156333] gave: CDH1-null / parental viability ratio 1.05; CDH1-null viability vs mock 0.62.
With knock-down of TMEM26 (transmembrane protein 26) [SID152154173] the results were CDH1-null / parental viability ratio 1.13; CDH1-null viability vs mock 0.81.
After knock-down of SPNS1 (SPNS lysolipid transporter 1, lysophospholipid) [SID135620767], the record shows CDH1-null / parental viability ratio 0.98; CDH1-null viability vs mock 0.95.
After knock-down of SMCP (sperm mitochondria associated cysteine rich protein) [SID134321436], the record shows CDH1-null / parental viability ratio 1.25; CDH1-null viability vs mock 0.75.
Silencing of EIF4A1 (eukaryotic translation initiation factor 4A1) [SID135623929] gave: CDH1-null / parental viability ratio 1.19; CDH1-null viability vs mock 0.57.
Against REM2 (RRAD and GEM like GTPase 2) [SID135621549], the entry reads CDH1-null / parental viability ratio 0.81; CDH1-null viability vs mock 0.34.
SLC12A3 [SID134312432] showed CDH1-null / parental viability ratio 0.97; CDH1-null viability vs mock 0.7.
ARL10 (ARF like GTPase 10) [SID152150727] scored CDH1-null / parental viability ratio 1.4; CDH1-null viability vs mock 0.84.
With knock-down of RAP1A (RAP1A, member of RAS oncogene family) [SID152149379], the record shows CDH1-null / parental viability ratio 0.87; CDH1-null viability vs mock 0.86.
After knock-down of CNOT4 (CCR4-NOT transcription complex subunit 4) [SID152150111], the screen gave CDH1-null / parental viability ratio 0.75; CDH1-null viability vs mock 0.43.
After knock-down of TYW1 (tRNA-yW synthesizing protein 1 homolog) [SID152150935], the record shows CDH1-null / parental viability ratio 1.18; CDH1-null viability vs mock 0.87.
CEMP1 (cementum protein 1) [SID135625679] showed CDH1-null / parental viability ratio 1.07; CDH1-null viability vs mock 0.81.
Against UBA52 (ubiquitin A-52 residue ribosomal protein fusion product 1) [SID135622198], the entry reads CDH1-null / parental viability ratio 1.82; CDH1-null viability vs mock 0.62.
